The record followed here is article PMC10745926, “Synthesis and Evaluation of Compound Targeting α7 and β2 Subunits in Nicotinic Acetylcholinergic Receptor” (Molecules, 2023).

Amino acid sequences for entries named in this document (tags omitted). Residues count along the entry.
UniProt P49582, residues 23-502: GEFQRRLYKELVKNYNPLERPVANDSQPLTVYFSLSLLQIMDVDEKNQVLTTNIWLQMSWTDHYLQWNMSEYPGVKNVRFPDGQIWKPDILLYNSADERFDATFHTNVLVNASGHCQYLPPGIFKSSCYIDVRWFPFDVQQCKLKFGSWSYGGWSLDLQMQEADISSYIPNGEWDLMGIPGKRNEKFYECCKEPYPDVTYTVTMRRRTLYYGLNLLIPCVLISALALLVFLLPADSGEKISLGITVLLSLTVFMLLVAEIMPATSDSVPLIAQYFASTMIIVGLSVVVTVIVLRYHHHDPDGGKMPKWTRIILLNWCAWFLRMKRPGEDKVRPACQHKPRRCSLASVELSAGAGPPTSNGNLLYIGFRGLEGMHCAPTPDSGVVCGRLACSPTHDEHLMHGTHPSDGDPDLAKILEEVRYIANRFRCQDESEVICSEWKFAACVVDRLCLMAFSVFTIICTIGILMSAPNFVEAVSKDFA
UniProt Q05941, residues 23-502: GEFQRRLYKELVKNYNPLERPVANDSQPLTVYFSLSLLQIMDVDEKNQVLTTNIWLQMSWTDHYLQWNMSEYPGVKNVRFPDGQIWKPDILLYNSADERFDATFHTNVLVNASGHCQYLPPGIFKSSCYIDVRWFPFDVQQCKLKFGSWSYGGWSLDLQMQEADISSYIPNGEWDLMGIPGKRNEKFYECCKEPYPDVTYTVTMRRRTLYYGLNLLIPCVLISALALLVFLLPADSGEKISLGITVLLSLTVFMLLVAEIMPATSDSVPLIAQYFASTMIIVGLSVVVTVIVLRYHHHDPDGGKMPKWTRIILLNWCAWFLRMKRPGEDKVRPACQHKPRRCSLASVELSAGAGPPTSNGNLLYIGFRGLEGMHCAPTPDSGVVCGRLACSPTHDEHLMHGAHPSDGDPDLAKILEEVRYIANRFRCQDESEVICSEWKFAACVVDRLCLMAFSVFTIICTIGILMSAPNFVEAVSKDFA
UniProt P60615, residues 22-95: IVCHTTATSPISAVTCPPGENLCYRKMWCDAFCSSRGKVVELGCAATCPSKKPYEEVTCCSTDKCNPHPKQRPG

The target in assay [1] is α7 nAChR (mouse brain) (mouse (endogenous in C57BL/6 mouse brain slices)) (UniProt P49582). Kind of assay: radioligand binding; only the binder purified.
In assay [2] the target is α7 nAChR (rat brain) (rat (endogenous in Sprague Dawley rat brain slices)) (UniProt Q05941). Description: radioligand binding; only the binder purified.

These are yes or no findings as the source states them, for the method shown. Some entries that bind do so weakly or less than the wild type.

As to “[^125I]α-iodobungarotoxin (from UniProt P60615 22-95) (ligand)”, the binding result in assay [1] and in assay [2] was “binds” in each case.
